We go through 105 sequences from PubChem BioAssay AID1347423 (Functional Genomics Laboratory (NCATS/FGL), 2020).

Hit rate of the full screen: of about 52,000 sequences, about 210 (0.4%) were called active.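 Rule for the calls: active = gene whose silencing raises cell survival under the drug, median off-target-corrected z-score across its silencing RNAs 2 or more; inactive = the rest.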 The list shows a part of the results.

The assay is described as follows: Resistance to Poly (ADP-Ribose) Polymerase inhibitor: Gene Identification via Genome-wide siRNA Screen. As to conditions: mouse BRCA2 R2336H ES cells, olaparib, CellTiter-Glo viability; active compounds read high. An outline of the steps:
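Mouse BRCA2 R2336H ES cells were reverse-transfected with siRNA (20 nM final), treated at 48 h with 500 nM olaparib, and read by CellTiter-Glo after 72 h. Scores: MAD-based z per siRNA, median per gene, seed off-target correction.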
A general note: ATP-based viability assays read luminescence as a measure of living cells.
In the case of “GGUCUUAAAAGAGAAGCCATT against 1300002A08Rik”, the z-score is inactive: -1.57.

For the sequence CCUGGAUGCAGGUUAAGCUTT against Dppa5, the z-score was inactive: 0.3.

Regarding GGCAGAAGAAGAGUUCAACTT against Atp6v1e1, the z-score was inactive: 0.651.

As to GCUACCUAAGUUGAAAAAGTT against Anp32b, the z-score is inactive: -0.323.

As to GGUGAUUCAUGUGAACUCATT against Zfp27, the z-score was inactive: 0.494.

As to “GCUUCUAACUCUGUGAGGGTT against 0610030I09Rik”, the z-score was inactive: 1.02.

Consider GGCAUAGCCACUAAAAAAATT against Muc2, for which the z-score was inactive: -0.443.

In the case of GGAUUAAAGAAAGACAUUGTT against Yme1l1, the z-score is inactive: -0.767.

As for GGAAGAGGAAAUCACCACATT against Scgf, the z-score was inactive: 1.53.

As for GCAGAUUACUUCCAUCAGUTT against Rps20, the z-score was inactive: -3.06.

Consider GCUACAGGAUUUAUACAUGTT against Dhx29, for which the z-score was inactive: 0.164.

With GGAAGACUUGUUUGACAUUTT against Stk11, the z-score is inactive: -0.207.

For GGCUAAAUCUAGCUACUAATT against Lair1, the z-score is inactive: 1.05.

Consider CCCUUGAAGAUGAAACCAGTT against Smarca5, for which the z-score was inactive: -1.47.

Take GGGUAUGCAUGAGCUACUATT against Tbc1d5: the z-score is inactive: -2.19.

Take GGAUCCAGUAACCAUCAUGTT against Arhgap22: the z-score was inactive: -1.3.

For CGGUUGAACCGGCCUCUUATT against Aco2, the z-score was inactive: -0.268.

Turning to GGUGCAAACGUAAACAUGATT against Asb4, the z-score is inactive: -0.0354.

In the case of CCUACAAAGUGGAUGUAAUTT against Fgfrl1, the z-score is inactive: -0.233.

As to GGUCAAUGGAGUUAGAAUATT against Atrn, the z-score is inactive: -0.0734.

As for “GCCGCUUAUUCACAGAUGUTT against 4930429H24Rik”, the z-score is inactive: -0.868.

Consider GGAUAGAACUCUAAGCCGUTT against Nkx2-2, for which the z-score was inactive: 2.61.

For the sequence “GGAGAGGUCAGAUAGAAAUTT against 9830132G07Rik”, the z-score was inactive: -2.99.

As to GGACAUUCAGAAACAGAAGTT against Zfp451, the z-score is inactive: 1.19.

As for GGAAAUGACAAGUAUGAAGTT against Gria4, the z-score was inactive: 0.136.

In the case of GGAAGAUGGGCUAUUUCAUTT against Gabra6, the z-score was inactive: -0.851.

For GGAGUUGGAUAUUAUCUAUTT against Drg1, the z-score was inactive: 0.258.

Turning to UCUGCUCAACAUCGUCAAUTT against Sstr3, the z-score is inactive: 0.217.

Turning to GGAAUCAAUGUCUCAGCCATT against Fscn2, the z-score was inactive: -1.73.

GGAGGAAGAACUGUCUUUGTT against Wasf1: the z-score was inactive: -1.51.

For the sequence GCCUCAAAAGACAAGGUGUTT against BC006909, the z-score is inactive: 0.218.

In the case of CGUUACUAUUUGAUCCACCTT against Nrp2, the z-score is inactive: 0.648.

For the sequence GGAGGAAUCAUAUAAUCUCTT against Adpn, the z-score was inactive: 0.0401.

In the case of GGAUACAGUCAAAUUACUUTT against Usp9y, the z-score is inactive: 1.97.

Regarding GGUGGUAAUUGGCUACUUUTT against Slc31a2, the z-score was inactive: 1.93.

With CGGAUAUGAGAUGAGAAUGTT against BC023055, the z-score was inactive: -0.639.

Take CCAGCUAUGUGUAUAAACCTT against Ppid: the z-score was inactive: 1.14.

As for GGUAGCACUUUGUAUUUUATT against Spg7, the z-score was inactive: -0.946.

As to GGUUGCUCUUAAGAUCAAUTT against Crx, the z-score is inactive: 1.22.

On to “CGAGAGAACUCUCACCUAUTT against 4933414G08”, for which the z-score is inactive: -0.138.

GGCAGAAGGUCUAUGAUUGTT against Zfp637: the z-score was inactive: 1.59.

Regarding GCUAGAGGUAUCAUGCUGATT against B4galt6, the z-score is inactive: -0.244.

On to GGGAUUUGUAUGAUGAUAATT against Sf3a3, for which the z-score was inactive: -2.46.

Consider ACUUCACCAUGGUACCCGGTT against Bzrp, for which the z-score is inactive: -0.182.

On to GGAGUGAGUCCUGAAGCAATT against Ifna12, for which the z-score was inactive: -1.69.

On to “GGAGAGUCUUGGAAAGGAATT against 3110082I17Rik”, for which the z-score was inactive: 2.11.

Regarding “CGACAGAGUUAAAUACUAGTT against D16H22S680E”, the z-score is inactive: -1.23.

In the case of “CCAAGGAAGUAGAUAAACUTT against 1700074P13Rik”, the z-score is inactive: -0.972.

As to GGCUUUUAUUUUCUGGGAUTT against Barhl1, the z-score is inactive: 0.947.

GGCUGAGAAAACCAAAGGGTT against Cfdp1: the z-score was inactive: -2.2.

In the case of GACCUUCUACAGAUAUUACTT against Dbr1, the z-score was inactive: -0.766.

For the sequence GGGCCAAUUCUGAAACUUGTT against Il1f5, the z-score was inactive: -0.45.

On to GGUCUACUUCUUUUUUACGTT against Sema4d, for which the z-score was inactive: 1.91.

For GGAGGAAAUGAUCACAGCUTT against Ccl20, the z-score was inactive: -0.557.

Turning to “CCGUUACAAUCAGUUAUUATT against A430106J12Rik”, the z-score was inactive: 0.397.

As for GGUACCAGGUAUCUUCAUUTT against Pard6g, the z-score was inactive: -0.405.

Consider CGGUAGGUUAAAACAGAUGTT against Rnf152, for which the z-score was inactive: 0.695.

On to “CGAGCACACUUUUGAAGAATT against 6530402A20”, for which the z-score is inactive: 1.82.

Turning to GGGAACAAAAUAGAAACCATT against Lgi2, the z-score was inactive: 0.141.

Take GCAGAAAAACUAAUGUACATT against Arhgap5: the z-score is inactive: -0.393.

As to GGCUGAGAAAGAAAUUAGGTT against Birc1c, the z-score is inactive: -0.629.

On to GCUGGGUCCACAUGAAUCATT against Sucnr1, for which the z-score is inactive: 0.73.

Consider CCCUCUGUAUUGCGUACCUTT against Dusp14, for which the z-score was inactive: 2.34.

In the case of GGAGGUGCUUUAUGUCGAUTT against Utx, the z-score was inactive: -1.84.

On to “GGAAAGCUUAGGAAUUACUTT against D8Ertd531e”, for which the z-score was inactive: -1.49.

On to “GGCCAUUCUUUGUCACCCATT against 4632413K17Rik”, for which the z-score was inactive: 0.212.

With GGGACAAAUAAUGAUGUGUTT against Dmbt1, the z-score is inactive: 0.26.

With CCAAAAGAGUUUUACAGGGTT against Lhx9, the z-score is inactive: 0.513.

In the case of GGACUUUGAUGUUGAAUGUTT against Rapgef1, the z-score was inactive: -0.498.

Consider “GCAGGAGAACAAAUCUAAUTT against 6530401L14Rik”, for which the z-score is inactive: 0.966.

As to CCUCCUGAUCAGAAAAGAUTT against Oplah, the z-score was inactive: -1.53.

On to GCGAUUGAAGUCUCAGGGATT against BC002230, for which the z-score was inactive: -1.32.

On to GGAGAAACGAAAAGACUCUTT against Brpf1, for which the z-score was inactive: 0.262.

In the case of GGAACCUAGGGUUUUCAGCTT against AU019823, the z-score was inactive: -0.141.

Turning to GCCUUACUGGGUUACUUGUTT against Cdkn2d, the z-score is inactive: 1.37.

As to CCCGUCAAAUAUGAAUACCTT against Klk6, the z-score is inactive: -0.16.

For CUGUCUUAUGGAGUUGUGATT against Olfr270, the z-score was inactive: 0.47.

Take “GGAAAAAUGACUUUUUGUGTT against 6030490I01Rik”: the z-score is inactive: 0.57.

In the case of GGUGAAGAUCUGAUAAGAATT against Epb4.1, the z-score was inactive: 0.214.

Take GGCCUAAGGCUGUGAAUGUTT against AI325464: the z-score was inactive: 0.022.

Turning to CCUGGACAAGCAAGAUCUCTT against V2r4, the z-score is inactive: 0.547.

In the case of GGCUCAACUGUGUUAAACATT against Tnfrsf4, the z-score is inactive: 0.801.

Regarding GCACAAACACCACUUUUCATT against Asb12, the z-score is inactive: -0.327.

Turning to GGUGACCUUUACCCUCACATT against Mocs1, the z-score is inactive: -2.81.

For GGCUGUGGAAAGAUGGACUTT against Ugt2b36, the z-score is inactive: -1.3.

Consider GGAAUUUCUACUACAUCACTT against Hs6st3, for which the z-score is inactive: 1.87.

On to GGACCACCACCGUCUAUUUTT against Adora3, for which the z-score is inactive: -0.884.

As for GGAACUGGAGAAGAUGGAGTT against Uncx4.1, the z-score was inactive: -0.372.

Consider GGACUUAUUCGAUAUAGUATT against Nt5c1b, for which the z-score is inactive: 0.34.

For the sequence GGACUUCCUGAAAGGCGAATT against H2-Q5, the z-score is inactive: -0.196.

In the case of CGGAUGAUUGUCACCCUGUTT against Mesp1, the z-score is inactive: 0.552.

On to GGACUUAAUAGUCUCUGGGTT against Gemin5, for which the z-score is inactive: -1.44.

On to GCAAGUCGUGAAACUAUAATT against Gas41, for which the z-score is inactive: 0.0888.

With GCACUGAGCAAGAAUCCUGTT against Bcap37, the z-score was inactive: -2.52.

For GCAUACAGAUUUACACCUGTT against BC049711, the z-score is inactive: 0.355.

In the case of GGCUACCAAUGAGACCAAUTT against Snap91, the z-score is inactive: 0.519.

For the sequence “CGCGUCAUUAUGAAAUGUUTT against 2610024A01Rik”, the z-score was inactive: 0.527.

Turning to GGAAGGAAGAAAAAAUAGUTT against Acat1, the z-score was inactive: -0.146.

As to CCUAACAUAGUAUAGCCUUTT against AI449175, the z-score is inactive: 0.361.

Turning to GCGGGACUGACCUCUUAAUTT against Guk1, the z-score is inactive: -0.227.

On to GGCGGCUGAAAGUUUUGCATT against Pklr, for which the z-score was inactive: 1.4.

For GGAGUAUCGUAAUGCGGACTT against C4, the z-score is inactive: 0.421.

Take GCACAAGUACUUCGAGCGCTT against Insm1: the z-score is inactive: -0.726.

Take GGCUAUUACUUUUAAGAACTT against Capn1: the z-score was inactive: -0.538.

With GCUAAAGCCGUACUCUGAGTT against Mark1, the z-score was inactive: -0.776.
